Values from PubChem BioAssay AID686937 (Drosophila RNAi Screening Center, 2013)

Aim: 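Genes in the fly needed for secretion of protein constitutively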 (primary screen)
Cell system: Drosophila S2 cells expressing secreted horseradish peroxidase
Knock-down reagent: long dsRNA against Drosophila genes
Time to read-out: about 5.5 days (5 days dsRNA, then 12 h reporter induction)
Treatment: reporter expression induced after 5 days of dsRNA, read 12 h later; inducer not stated
Read-out: 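After 5 days of dsRNA and 12 h of reporter induction, medium peroxidase read by chemiluminescence and scored as per-plate z-score; higher values mean more reporter released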
Direction: z-score: higher = more reporter secreted into medium
The deposit covers about 23,000 reagents; shown is an unselected part of those with a known target gene and a result. 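Reduced-secretion tags in replicate 1 do not always agree with the z-scores; no criterion for assigning the tags was given.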 Not all columns of the deposit are shown. The record does not give: the amount of reagent.

predicted target | PubChem SID | z-score, replicate 1 | z-score, replicate 2 | z-score, replicate 3
Vps15 | SID104196345 | -0.13 | 0.11 | –
Muc4B | SID104197854 | -0.12 | -0.86 | –
Muc4B | SID104197855 | -0.09 | -0.5 | –
CG9588 | SID104196296 | 0.41 | 0.55 | –
CG17110 | SID104194965 | 0.23 | 0.35 | –
CG9631 | SID104193929 | 0.33 | 0.37 | –
COX7AL | SID104195105 | 0.36 | -0.16 | –
CG31368 | SID104194741 | 0.21 | 0.18 | –
CG31368 | SID104194743 | 0.27 | 0.28 | –
Iru | SID104194249 | 0.17 | 0.38 | –
sicily | SID104199496 | 0.39 | 0.08 | –
RpS25 | SID104196629 | 0.25 | -0.62 | –
Gel | SID104192142 | 0.09 | 0.01 | –
Rpt4R | SID104190583 | -0.06 | 0.16 | –
CG34434 | SID104197926 | 0.33 | -0.28 | –
CG6414 | SID104198193 | 0.41 | 0.59 | –
Skel | SID104194697 | 0.34 | 0.33 | –
Skel | SID104194698 | 0.48 | 0.46 | –
Ir51b | SID104185332 | 0.34 | 0.06 | –
Cog3 | SID104180377 | -1.59 | -1.18 | –
Nop17l | SID104186348 | 0.33 | 0.41 | –
CG4438 | SID104182538 | 0.46 | 0.45 | –
Teh3 | SID104188329 | 0.47 | 0.44 | –
EbpII | SID104184429 | 0.14 | 0.3 | –
EbpII | SID104201938 | 0.01 | 0.04 | –
CG5359 | SID104195572 | 0.51 | 0.84 | –
CG10793 | SID104197552 | 0.32 | 0.44 | –
ckn | SID104185941 | 0.19 | 0.32 | –
Gr59c | SID104183977 | 0.09 | 0.32 | –
B52 | SID104193913 | 0.41 | 0.71 | -0.21
CG30414 | SID104184164 | 0.15 | 0.43 | –
CG5909 | SID104195706 | 0.38 | 0.35 | –
ICA69 | SID104191413 | 0.29 | 0.35 | –
tko | SID104198636 | 0.08 | -0.65 | –
shu | SID104184276 | 0.44 | 0.34 | –
CG7627 | SID104182857 | 0.34 | 0.34 | –
Gbs-76A | SID104190873 | 0.1 | 0.26 | –
CG31093 | SID104195481 | 0.17 | 0.22 | –
Ucp4A | SID104199788 | 0.26 | 0.42 | 0.07
CG1271 | SID104188082 | 0.5 | 0.2 | –
CG5877 | SID104199755 | 0.4 | 0.52 | –
spz6 | SID104184325 | -0.18 | -0.07 | –
CG34150 | SID104193481 | 0.44 | 0.38 | –
CG3906 | SID104184223 | 0.09 | 0.25 | –
gol | SID104184481 | 0.16 | 0.1 | –
Kap3 | SID104199218 | 0.2 | 0.27 | –
CG2889 | SID104198028 | 0.41 | 0.32 | –
CG4757 | SID104193922 | 0.39 | 0.2 | –
CG4669 | SID104190232 | 0.5 | 0.39 | –
Or45a | SID104187279 | 0.08 | 0.24 | –
CG14252 | SID104194539 | 0.28 | 0.62 | –
CG33483 | SID104193811 | 0.52 | 0.42 | –
Zip42C.2 | SID104184796 | 0 | 0.24 | –
Jhbp7 | SID104194200 | 0.23 | 0.19 | –
Fmr1 | SID104196466 | 0.55 | 0.28 | –
CG7992 | SID104199862 | 0.13 | 0.11 | –
Spn31A | SID104182572 | 0.27 | 0.3 | –
CG15147 | SID104182239 | 0.24 | 0.33 | 0.43
CG15147 | SID104182240 | 0.08 | 0.05 | –
rdhB | SID104195982 | 0.31 | 0.28 | –
CG11600 | SID104194124 | 0.33 | 0.64 | –
dpr2 | SID104182162 | 0.3 | 0.12 | –
dpr2 | SID104182163 | -0.09 | -0.17 | –
mRpS16 | SID104186944 | -0.01 | -0.28 | –
brv1 | SID104190868 | 0.22 | 0.21 | –
CG7798 | SID104186839 | 0.29 | 0.23 | –
Sgs5 | SID104196654 | -0.46 | 0.06 | –
mthl4 | SID104186790 | 0.56 | 0.26 | –
RpL4 | SID104196625 | -4.47 | -5.19 | –
Gyc89Db | SID104194801 | 0.07 | 0.36 | –
Nct | SID104195964 | 0.26 | 0.24 | –
Osi21 | SID104182200 | 0.47 | 0.16 | –
LRR | SID104186236 | 0.11 | 0.29 | –
CG13722 | SID104188123 | 0.45 | 0.59 | –
CG13722 | SID104201315 | -0.43 | -0.02 | –
CG5116 | SID104195512 | -0.69 | 0.02 | –
Vajk1 | SID104181674 | 0.61 | 0.39 | –
Torsin | SID104198362 | 0.68 | 0.59 | 0.38
Pask | SID104184129 | 0.23 | 0.34 | –
Or85f | SID104196561 | 0.4 | 0.73 | –
RSG7 | SID104200066 | 0.04 | 0.2 | –
RSG7 | SID104202211 | 0.19 | -0.16 | –
